Source: PMC5508529
No constants are given. Whether binding was seen depends on the method and setting. Binding seen in cells or lysates may run through a third protein. Some entries that bind do so weakly or less than the wild type.

Amino acid sequences for entries named in this document (tags omitted).
UniProt Q92793: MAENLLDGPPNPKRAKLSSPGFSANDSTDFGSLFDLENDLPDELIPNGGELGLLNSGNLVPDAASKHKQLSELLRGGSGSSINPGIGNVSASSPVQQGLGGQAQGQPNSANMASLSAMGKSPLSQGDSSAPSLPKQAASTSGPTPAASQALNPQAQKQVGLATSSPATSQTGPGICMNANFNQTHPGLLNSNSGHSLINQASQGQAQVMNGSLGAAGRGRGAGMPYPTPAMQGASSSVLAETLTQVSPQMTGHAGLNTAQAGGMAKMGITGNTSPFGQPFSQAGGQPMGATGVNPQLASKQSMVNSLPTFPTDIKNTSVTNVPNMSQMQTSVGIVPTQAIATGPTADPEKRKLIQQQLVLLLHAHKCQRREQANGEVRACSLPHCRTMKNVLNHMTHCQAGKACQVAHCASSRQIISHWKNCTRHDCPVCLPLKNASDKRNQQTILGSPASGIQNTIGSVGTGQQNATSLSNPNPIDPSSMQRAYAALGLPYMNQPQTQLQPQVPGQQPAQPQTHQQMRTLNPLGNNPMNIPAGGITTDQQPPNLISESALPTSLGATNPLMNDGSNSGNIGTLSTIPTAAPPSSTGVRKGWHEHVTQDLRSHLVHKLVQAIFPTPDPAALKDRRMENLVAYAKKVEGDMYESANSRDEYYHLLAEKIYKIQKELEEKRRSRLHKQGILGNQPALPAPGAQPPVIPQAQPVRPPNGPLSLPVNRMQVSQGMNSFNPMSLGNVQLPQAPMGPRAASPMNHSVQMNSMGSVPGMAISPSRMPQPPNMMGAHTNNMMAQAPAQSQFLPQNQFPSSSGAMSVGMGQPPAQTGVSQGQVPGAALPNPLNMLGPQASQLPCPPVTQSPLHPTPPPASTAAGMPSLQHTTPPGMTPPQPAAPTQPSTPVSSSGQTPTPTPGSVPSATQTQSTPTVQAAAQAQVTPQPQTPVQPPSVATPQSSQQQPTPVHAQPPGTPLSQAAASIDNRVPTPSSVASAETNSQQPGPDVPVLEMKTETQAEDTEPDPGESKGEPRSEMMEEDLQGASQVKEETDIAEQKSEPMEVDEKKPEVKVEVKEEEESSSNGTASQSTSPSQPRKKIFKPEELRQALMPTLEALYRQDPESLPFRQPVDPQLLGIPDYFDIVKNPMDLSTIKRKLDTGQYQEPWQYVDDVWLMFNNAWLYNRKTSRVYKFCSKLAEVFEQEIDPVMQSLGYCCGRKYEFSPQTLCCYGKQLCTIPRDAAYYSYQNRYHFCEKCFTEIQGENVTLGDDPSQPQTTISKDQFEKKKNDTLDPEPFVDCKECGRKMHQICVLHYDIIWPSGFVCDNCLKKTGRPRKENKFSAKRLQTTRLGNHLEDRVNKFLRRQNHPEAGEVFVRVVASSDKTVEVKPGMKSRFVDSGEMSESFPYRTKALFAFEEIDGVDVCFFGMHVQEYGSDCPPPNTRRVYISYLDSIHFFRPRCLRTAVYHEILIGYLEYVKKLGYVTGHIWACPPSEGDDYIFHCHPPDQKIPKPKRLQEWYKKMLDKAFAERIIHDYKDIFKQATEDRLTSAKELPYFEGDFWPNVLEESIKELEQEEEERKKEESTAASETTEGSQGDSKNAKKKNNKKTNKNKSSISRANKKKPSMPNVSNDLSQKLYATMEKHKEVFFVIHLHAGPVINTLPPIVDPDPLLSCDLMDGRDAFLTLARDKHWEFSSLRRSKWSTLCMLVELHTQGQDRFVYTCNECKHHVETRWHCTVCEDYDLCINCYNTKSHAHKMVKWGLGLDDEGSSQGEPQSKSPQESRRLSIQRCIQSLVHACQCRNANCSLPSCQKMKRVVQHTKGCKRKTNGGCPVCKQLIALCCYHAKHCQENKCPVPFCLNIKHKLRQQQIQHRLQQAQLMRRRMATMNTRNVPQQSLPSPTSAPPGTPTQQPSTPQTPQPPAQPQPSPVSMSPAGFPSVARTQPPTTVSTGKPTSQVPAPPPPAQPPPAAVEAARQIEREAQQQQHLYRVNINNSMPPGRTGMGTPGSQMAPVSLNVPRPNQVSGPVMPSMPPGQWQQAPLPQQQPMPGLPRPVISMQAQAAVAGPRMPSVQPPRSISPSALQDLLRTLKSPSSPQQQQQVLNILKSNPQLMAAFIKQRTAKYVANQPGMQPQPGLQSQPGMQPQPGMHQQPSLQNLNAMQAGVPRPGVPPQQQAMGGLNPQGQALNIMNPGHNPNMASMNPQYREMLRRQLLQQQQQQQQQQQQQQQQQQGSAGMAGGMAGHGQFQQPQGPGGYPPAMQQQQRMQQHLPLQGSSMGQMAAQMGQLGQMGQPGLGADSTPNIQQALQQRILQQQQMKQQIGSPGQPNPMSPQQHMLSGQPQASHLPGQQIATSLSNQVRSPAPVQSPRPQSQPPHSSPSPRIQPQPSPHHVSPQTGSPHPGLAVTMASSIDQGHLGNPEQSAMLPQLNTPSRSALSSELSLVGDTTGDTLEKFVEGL
UniProt O43524: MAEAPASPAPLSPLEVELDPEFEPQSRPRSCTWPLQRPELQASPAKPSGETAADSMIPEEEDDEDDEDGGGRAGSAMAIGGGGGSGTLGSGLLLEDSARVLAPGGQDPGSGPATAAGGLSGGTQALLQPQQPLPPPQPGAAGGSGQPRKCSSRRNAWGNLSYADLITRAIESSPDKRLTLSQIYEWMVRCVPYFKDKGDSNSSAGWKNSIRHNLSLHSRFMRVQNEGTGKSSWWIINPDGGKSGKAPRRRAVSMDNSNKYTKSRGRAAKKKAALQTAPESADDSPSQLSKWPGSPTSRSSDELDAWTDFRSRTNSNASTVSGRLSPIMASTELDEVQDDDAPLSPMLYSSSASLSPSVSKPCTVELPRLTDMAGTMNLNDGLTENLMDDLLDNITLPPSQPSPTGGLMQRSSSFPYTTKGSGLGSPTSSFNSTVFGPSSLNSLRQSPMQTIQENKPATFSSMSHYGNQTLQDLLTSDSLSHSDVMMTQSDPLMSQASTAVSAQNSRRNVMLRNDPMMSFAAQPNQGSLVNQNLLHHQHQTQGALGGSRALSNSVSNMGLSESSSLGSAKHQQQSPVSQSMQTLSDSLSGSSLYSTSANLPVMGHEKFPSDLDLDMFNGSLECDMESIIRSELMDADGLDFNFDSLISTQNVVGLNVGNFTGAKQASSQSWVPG
UniProt Q16665: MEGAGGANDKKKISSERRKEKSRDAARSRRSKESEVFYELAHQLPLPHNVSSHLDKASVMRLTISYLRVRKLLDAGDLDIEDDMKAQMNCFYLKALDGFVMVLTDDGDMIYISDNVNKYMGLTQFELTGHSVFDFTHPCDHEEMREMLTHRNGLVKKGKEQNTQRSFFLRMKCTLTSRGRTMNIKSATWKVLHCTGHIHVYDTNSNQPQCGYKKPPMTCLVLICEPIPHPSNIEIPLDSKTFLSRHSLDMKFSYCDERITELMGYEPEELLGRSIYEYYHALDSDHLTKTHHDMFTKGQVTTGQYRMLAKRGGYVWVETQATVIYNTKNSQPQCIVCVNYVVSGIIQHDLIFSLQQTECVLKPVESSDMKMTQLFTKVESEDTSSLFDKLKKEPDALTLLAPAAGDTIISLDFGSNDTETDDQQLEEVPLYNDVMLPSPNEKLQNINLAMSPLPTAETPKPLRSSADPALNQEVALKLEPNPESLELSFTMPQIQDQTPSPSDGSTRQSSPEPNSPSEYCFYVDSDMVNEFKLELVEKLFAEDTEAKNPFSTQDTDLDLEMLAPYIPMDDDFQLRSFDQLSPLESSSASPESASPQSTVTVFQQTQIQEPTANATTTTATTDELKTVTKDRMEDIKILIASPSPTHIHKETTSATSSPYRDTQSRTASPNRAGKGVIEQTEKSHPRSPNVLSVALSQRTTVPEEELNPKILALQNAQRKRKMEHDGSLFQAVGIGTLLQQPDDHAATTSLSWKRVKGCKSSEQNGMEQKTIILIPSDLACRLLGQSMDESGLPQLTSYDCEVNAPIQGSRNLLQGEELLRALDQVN

Biological target: CREB-binding protein (human (endogenous in UCB-hMSCs)) (UniProt Q92793)
Assay: co-IP; CBP antibody immobilised on AminoLink Plus coupling resin, incubated with UCB-hMSC lysate for 6 h at 4 °C; cells under hypoxia for 24 h or normoxia; IgG as negative control; western blot

| Substance | binding |
| --- | --- |
| forkhead box, class O3 (from UniProt O43524 1-673) | binds |
| hypoxia-inducible factor-1 alpha (from UniProt Q16665 1-826) | binds |
